Measurements reported in the supplement of paper PMC8728848.
The other results are listed elsewhere or left out.

Assays:
Assay in all cases: glycan array binding signal (z-score within array); higher = stronger binding
Conditions in all cases: glycan notation: IUPAC condensed, linker removed
[1] = biological target: GlcNAc(b1-4)GlcNAc(b1-4)GlcNAc(b1-4)GlcNAc(b1-4)GlcNAc(b1-4)GlcNAc
Method in brief: (§1)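 Negative Z-scores can be read as non-binding. The Z-score is calculated within each array and then averaged across arrays of one protein sequence at different concentrations or buffers and across linkers. Arrays, 3228 in all, were curated from the Consortium for Functional Glycomics database and kept only where the protein sequence was available.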

[2] = biological target: GlcNAc(b1-4)[GlcNAc(b1-6)]GalNAc
Method in brief: as §1

[3] = biological target: GlcNAc(b1-6)Gal(b1-4)GlcNAc
Method in brief: as §1

GlcNAc(b1-6)GalNAc = biological target: GlcNAc(b1-6)GalNAc
Method in brief: as §1

[4] = biological target: GlcNAc6S(b1-3)Gal(b1-4)GlcNAc
Method in brief: as §1

Kdn(a2-3)Gal(b1-3)GalNAc = biological target: Kdn(a2-3)Gal(b1-3)GalNAc
Method in brief: as §1

Kdn(a2-3)Gal(b1-3)GlcNAc = biological target: Kdn(a2-3)Gal(b1-3)GlcNAc
Method in brief: as §1

Kdn(a2-3)Gal(b1-4)Glc = biological target: Kdn(a2-3)Gal(b1-4)Glc
Method in brief: as §1

Kdn(a2-3)Gal(b1-4)GlcNAc = biological target: Kdn(a2-3)Gal(b1-4)GlcNAc
Method in brief: as §1

[5] = biological target: Kdn(a2-3)Gal(b1-4)[Fuc(a1-3)]GlcNAc
Method in brief: as §1

Kdn(a2-6)Gal(b1-4)GlcNAc = biological target: Kdn(a2-6)Gal(b1-4)GlcNAc
Method in brief: as §1

[6] = biological target: Man(a1-2)Man(a1-2)Man(a1-3)Man
Method in brief: as §1

[7] = biological target: Man(a1-2)Man(a1-2)Man(a1-6)[Man(a1-3)]Man
Method in brief: as §1

Man(a1-2)Man(a1-3)Man = biological target: Man(a1-2)Man(a1-3)Man
Method in brief: as §1

[8] = biological target: Man(a1-2)Man(a1-3)[Man(a1-2)Man(a1-6)]Man
Method in brief: as §1

[9] = biological target: Man(a1-2)Man(a1-3)[Man(a1-2)Man(a1-6)]Man(a1-6)[Man(a1-2)Man(a1-2)Man(a1-3)]Man
Method in brief: as §1

[10] = biological target: Man(a1-2)Man(a1-3)[Man(a1-2)Man(a1-6)]Man(a1-6)[Man(a1-2)Man(a1-2)Man(a1-3)]Man(b1-4)GlcNAc(b1-4)GlcNAc
Method in brief: as §1

[11] = biological target: Man(a1-2)Man(a1-3)[Man(a1-6)]Man(a1-6)[Man(a1-2)Man(a1-3)]Man(b1-4)GlcNAc(b1-4)GlcNAc
Method in brief: as §1

[12] = biological target: Man(a1-2)Man(a1-6)[Man(a1-3)]Man(a1-6)[Man(a1-2)Man(a1-2)Man(a1-3)]Man
Method in brief: as §1

[13] = biological target: Man(a1-2)Man(a1-6)[Man(a1-3)]Man(a1-6)[Man(a1-2)Man(a1-2)Man(a1-3)]Man(b1-4)GlcNAc(b1-4)GlcNAc
Method in brief: as §1

Man(a1-3)[Man(a1-6)]Man = biological target: Man(a1-3)[Man(a1-6)]Man
Method in brief: as §1

[14] = biological target: Man(a1-3)[Man(a1-6)]Man(a1-6)[Man(a1-2)Man(a1-3)]Man(b1-4)GlcNAc(b1-4)GlcNAc
Method in brief: as §1

[15] = biological target: Man(a1-3)[Man(a1-6)]Man(a1-6)[Man(a1-3)]Man
Method in brief: as §1

[16] = biological target: Man(a1-3)[Man(a1-6)]Man(a1-6)[Man(a1-3)]Man(b1-4)GlcNAc(b1-4)GlcNAc
Method in brief: as §1

[17] = biological target: Man(a1-3)[Man(a1-6)]Man(b1-4)GlcNAc(b1-4)GlcNAc
Method in brief: as §1

[18] = biological target: Man(a1-3)[Man(a1-6)]Man(b1-4)GlcNAc(b1-4)[Fuc(a1-6)]GlcNAc
Method in brief: as §1

Man(a1-6)Man = biological target: Man(a1-6)Man
Method in brief: as §1

Man(b1-4)GlcNAc = biological target: Man(b1-4)GlcNAc
Method in brief: as §1

MurNAc(b1-4)GlcNAc = biological target: MurNAc(b1-4)GlcNAc
Method in brief: as §1

Neu5Ac(a2-3)Gal = biological target: Neu5Ac(a2-3)Gal
Method in brief: as §1

[19] = biological target: Neu5Ac(a2-3)Gal(b1-3)GalNAc
Method in brief: as §1

[20] = biological target: Neu5Ac(a2-3)Gal(b1-3)GalNAc(b1-3)Gal(a1-4)Gal(b1-4)Glc
Method in brief: as §1

[21] = biological target: Neu5Ac(a2-3)Gal(b1-3)GalNAc(b1-4)[Neu5Ac(a2-3)]Gal(b1-4)Glc
Method in brief: as §1

[22] = biological target: Neu5Ac(a2-3)Gal(b1-3)GalNAc(b1-4)[Neu5Ac(a2-8)Neu5Ac(a2-3)]Gal(b1-4)Glc
Method in brief: as §1

[23] = biological target: Neu5Ac(a2-3)Gal(b1-3)GalNAc6S
Method in brief: as §1

[24] = biological target: Neu5Ac(a2-3)Gal(b1-3)GlcNAc
Method in brief: as §1

[25] = biological target: Neu5Ac(a2-3)Gal(b1-3)GlcNAc(b1-2)Man
Method in brief: as §1

B1: PX14343E-bfa-545-24-545 (Bacteroides fragilis) (protein)
chain: LDRYPQEELSDGSFWKTPDDANKVVSDLYGYLSTWDQDNDINSDNATMGIKWAAGNVSKGIYDPADQGWSGDYANVRQCNLILSKIDEIPDYPEADKTKALGQVYFFRAYIYFNLIRSFGDVPYIDKPLDLKDMEGITRMPRAEVYEKIMADFDKAIAALPTEWGASDYGRVTKGAAMAMKARAALYYGNWDTAATEAKNVMDLGLYELYDKDNTGKYAELFWEKADGCDEFILVTQFNYPDKTHYLMGWECFPTKGWGGMNPTQSLVDAFEDSEGAPISKSKIYDPTDPFKNRDPRLEVDILHDGEEMYGVTIKVAPLASSGSTGINQHNDATETGYYGQKWLDPSLDPLSDGWNMGKDWVHIRYAEVLLTYAEAKNELQGLDPEAFDAVNQVRRRVGMPELQNTDPSKPTYCATQDDLRQRIRNEWRVEFCLEGGKRMWDIRRWGIAKDVLNAPFEGLKYKIVDNPNDPDKKVDGGKMCILYQGDPIILSGSRYSDNNYLFPVPQSEIDLNPALTQNPGY
[1]
  glycan array binding signal (z-score): -0.443
[2]
  glycan array binding signal (z-score): -0.422
[3]
  glycan array binding signal (z-score): -0.386
GlcNAc(b1-6)GalNAc
  glycan array binding signal (z-score): -0.521
[4]
  glycan array binding signal (z-score): -0.057
Kdn(a2-3)Gal(b1-3)GalNAc
  glycan array binding signal (z-score): -0.579
Kdn(a2-3)Gal(b1-3)GlcNAc
  glycan array binding signal (z-score): -0.513
Kdn(a2-3)Gal(b1-4)Glc
  glycan array binding signal (z-score): -0.184
Kdn(a2-3)Gal(b1-4)GlcNAc
  glycan array binding signal (z-score): -0.606
[5]
  glycan array binding signal (z-score): 0.153
Kdn(a2-6)Gal(b1-4)GlcNAc
  glycan array binding signal (z-score): -0.048
[6]
  glycan array binding signal (z-score): -0.508
[7]
  glycan array binding signal (z-score): -0.704
Man(a1-2)Man(a1-3)Man
  glycan array binding signal (z-score): -0.688
[8]
  glycan array binding signal (z-score): -0.963
[9]
  glycan array binding signal (z-score): -0.94
[10]
  glycan array binding signal (z-score): -0.197
[11]
  glycan array binding signal (z-score): -0.486
[12]
  glycan array binding signal (z-score): 0.11
[13]
  glycan array binding signal (z-score): -0.424
Man(a1-3)[Man(a1-6)]Man
  glycan array binding signal (z-score): 0.601
[14]
  glycan array binding signal (z-score): -0.092
[15]
  glycan array binding signal (z-score): -0.075
[16]
  glycan array binding signal (z-score): -0.602
[17]
  glycan array binding signal (z-score): -0.762
[18]
  glycan array binding signal (z-score): -0.452
Man(a1-6)Man
  glycan array binding signal (z-score): 0.514
Man(b1-4)GlcNAc
  glycan array binding signal (z-score): -0.722
MurNAc(b1-4)GlcNAc
  glycan array binding signal (z-score): -0.184
Neu5Ac(a2-3)Gal
  glycan array binding signal (z-score): -0.082
[19]
  glycan array binding signal (z-score): -0.541
[20]
  glycan array binding signal (z-score): -0.469
[21]
  glycan array binding signal (z-score): -0.236
[22]
  glycan array binding signal (z-score): -0.153
[23]
  glycan array binding signal (z-score): -0.665
[24]
  glycan array binding signal (z-score): -0.072
[25]
  glycan array binding signal (z-score): 0.093
